Results: PMC9074688
Results are given in words; binding and its absence hold for the method and conditions named. In cells and extracts the contact can be indirect. Some binding calls cover weakened binding; strength is not graded here.

Protein sequences, listed by entry. Tags and fused reporters are not part of them.
UniProt Q04207: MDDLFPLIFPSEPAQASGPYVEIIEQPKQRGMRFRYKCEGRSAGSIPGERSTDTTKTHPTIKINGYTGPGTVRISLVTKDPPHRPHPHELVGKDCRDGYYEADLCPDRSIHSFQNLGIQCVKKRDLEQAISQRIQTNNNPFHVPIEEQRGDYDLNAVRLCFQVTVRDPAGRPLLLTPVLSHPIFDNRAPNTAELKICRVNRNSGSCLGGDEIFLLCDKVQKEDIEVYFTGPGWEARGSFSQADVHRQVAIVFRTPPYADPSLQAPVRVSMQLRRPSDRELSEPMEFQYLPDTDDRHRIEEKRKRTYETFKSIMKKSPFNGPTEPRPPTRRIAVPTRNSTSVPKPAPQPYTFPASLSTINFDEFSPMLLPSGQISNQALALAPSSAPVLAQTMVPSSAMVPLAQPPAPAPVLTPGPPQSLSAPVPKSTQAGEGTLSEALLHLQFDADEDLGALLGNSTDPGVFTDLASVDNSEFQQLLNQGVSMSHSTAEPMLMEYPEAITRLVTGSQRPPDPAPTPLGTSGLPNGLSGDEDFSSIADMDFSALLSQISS
UniProt Q06831: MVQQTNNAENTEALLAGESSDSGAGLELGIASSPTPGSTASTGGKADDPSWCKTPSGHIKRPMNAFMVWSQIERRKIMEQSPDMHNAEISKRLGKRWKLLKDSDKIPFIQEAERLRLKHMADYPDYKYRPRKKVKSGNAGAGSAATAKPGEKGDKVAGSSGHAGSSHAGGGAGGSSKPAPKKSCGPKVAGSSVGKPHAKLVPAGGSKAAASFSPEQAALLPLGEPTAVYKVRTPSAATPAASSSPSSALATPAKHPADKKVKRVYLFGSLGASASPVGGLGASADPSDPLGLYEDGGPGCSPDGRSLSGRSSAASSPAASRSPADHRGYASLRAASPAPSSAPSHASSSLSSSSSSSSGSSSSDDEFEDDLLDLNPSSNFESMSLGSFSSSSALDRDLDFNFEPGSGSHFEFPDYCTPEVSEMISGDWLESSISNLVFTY

Target: RELA/p65 (mouse (endogenous in mouse FLS)) (UniProt Q04207)
Assay: co-IP; nuclear extracts of wildtype mouse FLS treated with or without TNF (10 ng/mL, 16 h); p65 antibody or rabbit non-immune IgG on Dynabeads, overnight; western blot for SOX4, p65, HDAC1

binding: binds
Substance: SOX4 (from UniProt Q06831 1-440)
